# From patent publication US9623001B2, “Methods of reducing the risk of a cardiovascular event in a subject on statin therapy” (Amarin Pharmaceuticals Ireland Limited, priority 2012, dated 2017)
# For at least one compound, name, drawing or mass did not settle the structure.
# Experiment: Phase 3 placebo-controlled, randomized, double-blind cardiovascular outcomes study of AMR101 4 g daily in statin-treated patients with hypertriglyceridemia (planned)
# Format: in vivo
# Settings: sample size assumption, placebo group assumed 23.6%
structure (smiles),measurement,value
"CC/C=C\C/C=C\C/C=C\C/C=C\C/C=C\CCCC(=O)OCC [AMR101, eicosapentaenoic acid ethyl ester]","event rate by 4 years of the primary composite endpoint (first occurrence of CV death, non-fatal MI, non-fatal stroke, coronary revascularization, or unstable angina requiring hospitalization)",20.5%
